Assay results taken from patent US20050261292A1, “Pharmaceutical composition containing N-sulfamoyl-N'-arylpiperazines for the treatment or inhibition of obesity and related conditions” (Solvay Pharmaceuticals GmbH, priority 2004, published 2005).

System: dietary obese female Wistar rats
Test: Chronic influence on food and water intake and body weight gain in vivo (carcass composition, plasma parameters)
Parameters: species or system rat
Settings: 28 days
Procedure: 4. Chronic Influence on Food and Water Intake and Body Weight Gain in vivo
Female Wistar rats (weight range 250-300 g; Charles River, Margate, Kent) were housed in pairs in polypropylene cages with solid floors and sawdust bedding at a temperature of 21±4° C. and 55±20% humidity. Animals were maintained on a reverse phase light-dark cycle (lights off for 8 hours from 10.00-18.00 h) during which time the room was illuminated by red light. Animals had free access to powdered high fat diet (VRF1 plus 20% lard), ground chocolate, ground peanuts and tap water at all times. […] At least two weeks before the start of the baseline readings, animals were housed individually in polypropylene cages with wire grid floors to enable the food intake of each rat to be recorded. […]
The test substance of example 2 was suspended in 1% Tylose MH50, 0.1% poloxamer 188 and administered by oral gavage (2 ml/kg). […] At each reading, the tray below each cage was examined for spilt food, which was returned to the appropriate jar before weighing. […]
Animals were killed at the end of the study (by CO2 to minimize any fluid loss) on day 29 and blood samples (5 ml whole blood/animal) were collected by cardiac puncture. […] Body fat, protein, water and ash levels of the carcasses were determined using standard chemical analysis techniques. […]

NS(=O)(=O)N1CCN(c2ccccc2)CC1 [Example 2, N-Sulfamoyl-N′-phenylpiperazine hydrochloride]
Total of water, fat, protein and ash, percent final body weight (30 mg/kg po twice daily (0 h, 4 h)): 98.6% | Total of water, fat, protein and ash, percent final body weight (50 mg/kg po twice daily (0 h, 4 h)): 98.4%

Where a name gives a salt, the structure may show the parent alone.
